Columns and labels:
[1] = system: endogenous specific binding proteins (FKBP) in whole blood; assay: ACMIA assay for sirolimus: release of sirolimus from endogenous binding substances in spiked whole blood by releasing agent; conditions: releasing agent 10 μg/mL in pretreatment solution
Method: (§1) Testing was carried out using the DIMENSION® RxL analyzer, available from Siemens Healthcare Diagnostics Inc., Newark Del. The instrument was employed using ACMIA immunoassay technology. The ACMIA assay method is described in U.S. Pat. Nos. 7,842,475, 7,186,518, 5,147,529, 5,128,103, 5,158,871, 4,661,408, 5,151,348, 5,302,532, 5,422,284, 5,447,870, and 5,434,051, the disclosures of which are incorporated herein in their entirety. In the embodiment of the ACMIA method used herein and discussed in more detail below, competition between tacrolimus analog on chrome particles and tacrolimus in patient samples for antibody for tacrolimus conjugated to an enzyme (the “conjugate”) is utilized to determine the amount of tacrolimus in patient samples. Conjugate that binds to the tacrolimus analog on chrome particles is removed by magnetic separation. The enzymatic activity from the conjugate remaining in the supernatant is measured and is directly proportional to the amount of tacrolimus in the patient sample. […] The enzymatic activity observed when no chrome particle is present is indicative of the total amount of enzymatic activity in the conjugate.
(§2) Preparation of pretreatment reagent solution. This pretreatment solution was prepared to contain an amount of releasing agent, 6.8 mg/mL PIPES 1.5 sodium salt (buffer), 0.3 mg/mL EDTA disodium (clot prevention agent), 1.0 mg/mL saponin (hemolytic agent), 0.2% PROCLIN® 300 (preservative), 0.024 mg/mL neomycin sulfate (preservative) and 0.99 mg/mL NaN3, pH 6.5. The amount of releasing agent in each of the pretreatment reagent solutions was 10 μg/mL. The releasing agent concentration in the final reaction mixture was equivalent to 46.7 μg/mL of the analog added from the sample.
Preparation of anti-sirolimus antibody-β-galactosidase conjugate. […] The antibody conjugate solution contained approximately 7.5 μg/mL anti-sirolimus antibody-β-galactosidase conjugate, 30 mg/mL protease free bovine serum albumin, 0.126 mg/mL MgCl2, 0.03 mL/mL of ethylene glycol, 35.14 mg/mL PIPES 1.5 sodium salt, 50 mg/mL NaCl and beta-gal mutein (inactivated β-galactosidase), pH 6.5.
Magnetic chrome particle preparation. Sirolimus chrome particles (immunoassay solid phase) were prepared by conjugating sirolimus-biotin conjugate to streptavidin-coated chrome particle (prepared in a manner similar to that described in U.S. Pat. No. 7,842,475). The chrome particle reagent contained approximately 2.5 mg/mL sirolimus chrome particle slurry, 60.8 mg/mL trehalose dihydrate and 7.2 mg/mL CARBOWAX®.
(§3) Preparation of samples. Aliquots of a whole blood pool are spiked with an amount of sirolimus so that the resulting concentration of sirolimus in the whole blood samples in the calibrators is as set forth in Table 1 (0.0, 5.1, 10.1, 20.6 and 31.6 ng/mL). Aliquots of a whole blood pool are spiked with an amount of tacrolimus so that the resulting concentration of […] (0.0, 2.6, 5.3, 11.6 and 30.1 ng/mL).
(§4) Pretreatment of samples. A set of samples was treated as follows: To each sample was added an amount of the pretreatment reagent solution from above for displacing sirolimus in the sample from endogenous specific binding proteins. The samples were incubated at 37° C. for a period of 140 minutes. Subsequently, each sample was subjected to the aforementioned assay, which is further described below; and signal (mAU) was measured and related to a concentration of analyte that represents the amount of free analyte (analyte that is not bound by endogeneous binding substances plus analyte that was displaced from endogeneous binding substances) in the samples.
Assay. The ACMIA assay for sirolimus was carried out as follows: 15 μL of a whole blood sample from above was mixed with the pretreatment reagent solution from above (Displacer) (Table 1) in a vessel on the DIMENSION® RxL analyzer.

[2] = system: endogenous specific binding proteins (FKBP) in whole blood; assay: ACMIA assay for tacrolimus: release of tacrolimus from endogenous binding substances in spiked whole blood by releasing agent; conditions: releasing agent 10 μg/mL in pretreatment solution
Method: as §1, §2
Preparation of anti-tacrolimus antibody-β-galactosidase conjugate. Monoclonal anti-tacrolimus antibody (clone 1H6, see for example U.S. Pat. No. 7,078,495) is conjugated to β-galactosidase using a standard heterobifunctional SMCC (succinimidyl trans-4-(N-maleimidylmethyl)cyclohexane-1-carboxylate) linker according to known techniques. The antibody conjugate solution contains approximately 7.5 μg/mL anti-tacrolimus antibody-β-galactosidase conjugate, 30 mg/mL protease free bovine serum albumin, 0.126 mg/mL MgCl2, 0.03 mL/mL of ethylene glycol, 35.14 mg/mL PIPES 1.5 sodium salt, 50 mg/mL NaCl and beta-gal mutein (inactivated β-galactosidase), pH 6.5.
The chrome particle reagent contained approximately 2.5 mg/mL tacrolimus chrome particle slurry, 60.8 mg/mL trehalose dihydrate and 7.2 mg/mL CARBOWAX®.
as §3, §4
The above format for releasing an analyte (using the concentration of releasing agent (Displacer) shown) and conducting an assay for the analyte was repeated for samples containing tacrolimus.

[3] = sirolimus calibrator 10.1 ng/mL
[4] = sirolimus calibrator 20.6 ng/mL
[5] = sirolimus calibrator 31.6 ng/mL
[6] = tacrolimus calibrator 0.0 ng/mL
[7] = tacrolimus calibrator 2.6 ng/mL
[8] = tacrolimus calibrator 5.3 ng/mL
[9] = tacrolimus calibrator 11.6 ng/mL
[10] = tacrolimus calibrator 30.1 ng/mL

| Compound | Instrument signal observed for calibrators ([1]; sirolimus calibrator 0.0 ng/mL) [mAU] | Instrument signal observed for calibrators ([1]; sirolimus calibrator 5.1 ng/mL) [mAU] | Instrument signal observed for calibrators [1, 3] [mAU] | Instrument signal observed for calibrators [1, 4] [mAU] | Instrument signal observed for calibrators [1, 5] [mAU] | Instrument signal observed for calibrators [2, 6] [mAU] | Instrument signal observed for calibrators [2, 7] [mAU] | Instrument signal observed for calibrators [2, 8] [mAU] | Instrument signal observed for calibrators [2, 9] [mAU] | Instrument signal observed for calibrators [2, 10] [mAU] |
| --- | --- | --- | --- | --- | --- | --- | --- | --- | --- | --- |
| CO[C@H]1C[C@@H]2CC[C@@H](C)[C@@](O)(O2)C(=O)C(=O)N2CCCC[C@H]2C(=O)O[C@H]([C@H](C)C[C@@H]2CC[C@@H](O)[C@H](OC)C2)CC(=O)[C@H](C)/C=C(\C)[C@@H](O)[C@@H](OC)C(=O)[C@H](C)C[C@H](C)CCCCCC1C (stereo partly shown) [XI, hydrogenated sirolimus] | 443 | 447 | 451 | 450 | 448 | 23 | 36 | 42 | 55 | 79 |
| Diels-Alder adducts of 4-phenyl-1,2,4-triazoline-3,5-dione (PTAD) and sirolimus [Mixture V + VI] | 223 | 281 | 317 | 359 | 395 | 26 | 42 | 51 | 66 | 89 |
| C=CC[C@@H]1/C=C(\C)C[C@H](C)C[C@H](OC)[C@H]2O[C@@](O)(C(=O)C(=O)N3CCCC[C@H]3C(=O)O[C@H](/C(C)=C/[C@@H]3CC[C@@H](O)[C@H](OC)C3)[C@H](C)[C@@H](O)CC1=O)[C@H](C)C[C@@H]2OC [Tacro, tacrolimus] | 199 | 242 | 261 | 300 | 339 | – | – | – | – | – |
